Results as given in publication PMC4114565.
Results are given in words; binding and its absence hold for the method and conditions named. In cells and extracts the contact can be indirect. Some results given as binding are weak or reduced against the parent protein; the word gives no strength. For part of these data: Tags and fused reporters may be left off the sequences shown.

T1: UBF1 (mouse (endogenous in C2C12)) (UniProt P25976)
T1 sequence: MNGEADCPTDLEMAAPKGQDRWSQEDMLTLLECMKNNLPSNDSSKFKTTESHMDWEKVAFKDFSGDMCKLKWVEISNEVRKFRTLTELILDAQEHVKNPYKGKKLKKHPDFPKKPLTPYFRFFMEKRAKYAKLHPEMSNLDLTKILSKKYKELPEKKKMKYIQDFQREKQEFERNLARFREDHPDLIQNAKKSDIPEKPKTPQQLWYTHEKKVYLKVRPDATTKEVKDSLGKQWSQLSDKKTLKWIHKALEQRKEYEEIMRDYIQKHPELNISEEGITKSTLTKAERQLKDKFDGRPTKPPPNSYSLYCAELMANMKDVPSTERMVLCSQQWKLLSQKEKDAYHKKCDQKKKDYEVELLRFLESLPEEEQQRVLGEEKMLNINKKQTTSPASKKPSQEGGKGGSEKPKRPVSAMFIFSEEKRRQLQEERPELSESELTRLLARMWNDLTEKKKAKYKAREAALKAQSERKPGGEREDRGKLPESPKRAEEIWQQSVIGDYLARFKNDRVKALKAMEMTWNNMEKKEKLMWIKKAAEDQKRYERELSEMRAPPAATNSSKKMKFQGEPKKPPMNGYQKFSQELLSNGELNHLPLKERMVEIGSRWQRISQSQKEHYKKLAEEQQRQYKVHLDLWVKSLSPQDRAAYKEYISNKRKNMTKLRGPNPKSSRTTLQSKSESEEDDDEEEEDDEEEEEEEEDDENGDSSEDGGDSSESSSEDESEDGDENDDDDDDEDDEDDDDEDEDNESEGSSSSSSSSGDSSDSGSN

B1: recombinant mouse NOA1-His6 protein lacking the mitochondrial targeting sequence (aa 1–17) (domain or fragment, UniProt Q9JJG9 18-693)
chain: PAPAAACYGPARWLLEGKCEVPIRQRASSLGRRVPPSSTATEDYAEGPDTEERFLFPEYVPERTPEEQVRELQELRELQQLQQEKERERLQQREERLQQKLRAGFRTLPVPEFPDASVPPSGIYCSGCGAELHCQHPGLPGYLPEEKFRDAAQAEGGPARTVCQRCWLLVHHGRALRLQVSRDQYLELVSAALRRPGPALVLYMVNLLDLPDALLPDLPKLVGPKQLIVLGNKVDLLPQDAPGYLKRLRKRLWDDCIRAGLVVAPGHQGPQYPAGDEPLEEIKNQNPSSRSRTVVKDVRLISAKTGYGVEEMISALQRSWRYRGDVYLVGTTNAGKSTLFNTLLESDYCTAKGSEAIDRATISPWPGTTLNLLKFPICNPTPYRMFKRQRRLQEDATKAEEDLSEEEQSQLNQLKKHGYIVGRVGRTFSYSREQDEVPFEFDADSLAFDMGSEPVVSVCKSTKQIELTPEDVKDAHWFYDTPGITKESCILNLLTEKEINTVLPTHSIIPRTFVLKPGMVLFLGGIARIDFLQGNQSAWFTVVASNFLPVHITSLDKADALYEKHAGHELLLVPMGGKERMAQFPPLVAEDITLKGGGKFEAVADIKFSSAGWVAVTPYSEGTLHLRGHTPEGTALTVHPPVLPYIVNVKGQRMKKSVAYKTKKPPSLVHNLKKHR
B2: fibrillarin (protein, UniProt P35550 1-327)
chain: MKPGFSPRGGGFGGRGGFGDRGGRGGGRGGRGGFGGGRGGFGGGGRGRGGGGGGFRGRGGGGGRGGGFQSGGNRGRGGGRGGKRGNQSGKNVMVEPHRHEGVFICRGKEDALVTKNLVPGESVYGEKRVSISEGDDKIEYRAWNPFRSKLAAAILGGVDQIHIKPGAKVLYLGAASGTTVSHVSDIVGPDGLVYAVEFSHRSGRDLINLAKKRTNIIPVIEDARHPHKYRMLIAMVDVIFADVAQPDQTRIVALNAHTFLRNGGHFVISIKANCIDSTASAEAVFASEVKKMQQENMKPQEQLTLEPYERDHAVVVGVYRPPPKVKN
B3: Tfam (protein, UniProt P40630 43-243)
chain: SSMGSYPKKPMSSYLRFSTEQLPKFKAKHPDAKLSELVRKIAALWRELPEAEKKVYEADFKAEWKAYKEAVSKYKEQLTPSQLMGMEKEARQRRLKKKALVKRRELILLGKPKRPRSAYNIYVSESFQEAKDDSAQGKLKLVNEAWKNLSPEEKQAYIQLAKDDRIRYDNEMKSWEEQMAEVGRSDLIRRSVKRSGDISEH

Experiments:
[1] = molecular target: T1, UBF1 (mouse (endogenous in C2C12)); assay: co-IP; antibodies against endogenous UBF1, C2C12 lysates; NOA1-His6 co-immunoprecipitated; only the binder purified
[2] = molecular target: T1, UBF1 (mouse (endogenous in C2C12)); assay: co-IP; antibodies against endogenous UBF1, C2C12 lysates; endogenous proteins detected by blot

Row | binding [1] | binding [2] | Binder
1 | binds | – | B1
2 | – | binds | B2
3 | – | no binding | B3
